{"sequences": {"note": "The chains behind the UniProt entries cited, without tags or fusion partners. Where a name states a change or a piece, a line headed by the entry shows the natural chain unless it says otherwise.", "UniProt Q05513": "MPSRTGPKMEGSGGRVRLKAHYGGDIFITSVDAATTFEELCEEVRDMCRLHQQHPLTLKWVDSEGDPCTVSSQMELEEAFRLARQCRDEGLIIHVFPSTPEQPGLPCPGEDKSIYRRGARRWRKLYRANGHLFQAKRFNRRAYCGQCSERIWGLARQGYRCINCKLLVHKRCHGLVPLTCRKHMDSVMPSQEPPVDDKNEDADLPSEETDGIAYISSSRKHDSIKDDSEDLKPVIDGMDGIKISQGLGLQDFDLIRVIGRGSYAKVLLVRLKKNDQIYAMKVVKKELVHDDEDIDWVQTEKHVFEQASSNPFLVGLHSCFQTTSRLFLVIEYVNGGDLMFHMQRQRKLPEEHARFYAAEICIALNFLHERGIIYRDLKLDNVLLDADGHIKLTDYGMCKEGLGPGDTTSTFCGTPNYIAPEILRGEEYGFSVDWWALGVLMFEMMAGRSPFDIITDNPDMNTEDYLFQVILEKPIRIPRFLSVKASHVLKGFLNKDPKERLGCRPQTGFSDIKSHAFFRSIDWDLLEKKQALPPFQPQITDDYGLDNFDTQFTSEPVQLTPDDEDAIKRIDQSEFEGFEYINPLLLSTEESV"}, "source": "PubChem BioAssay AID2283193", "about": "(EPA ToxCast)", "note": "The shares of active, inactive and inconclusive entries below differ from those in the screen. A potency beside an inconclusive call is a rough fit, not a confirmed value. Activity calls are given as the source filed them. Rule for the calls: active = hit-call score of the fitted dose curve at least 0.9, where 1 is the maximum; inconclusive = response in the unintended direction; inactive = score below 0.9.", "data": [{"biological_target": "human Protein Kinase C, zeta (PKCz), PRKCZ (gene 5590) (UniProt Q05513)", "assay": "NVS_ENZ_hPKCz: NovaScreen (NVS) Enzymatic Assay for human Protein Kinase C, zeta (PKCz)", "protocol": "NVS_ENZ_hPKCz is a biochemical, single-readout assay that uses extracted gene-proteins in a cell-free assay. Measurements were taken 1 hour after chemical dosing in a 384-well plate.NVS_ENZ_hPKCz is one of one assay component(s) measured or calculated from the NVS_ENZ_hPKCz assay. It is designed to make measurements of enzyme activity, a form of enzyme reporter, as detected with fluorescence intensity signals by Fluorescence and electrophoretic mobility shift technology.Data from the assay component NVS_ENZ_hPKCz was analyzed into 1 assay endpoint. This assay endpoint, NVS_ENZ_hPKCz, was analyzed in the positive analysis fitting direction relative to DMSO as the negative control and baseline of activity. Using a type of enzyme reporter, loss-of-signal activity can be used to understand changes in the enzymatic activity as they relate to the gene PRKCZ. Furthermore, this assay endpoint can be referred to as a primary readout, because this assay has produced multiple assay endpoints where this one serves a enzymatic activity function. To generalize the intended target to other relatable targets, this assay endpoint is annotated to the kinase intended target family, where the subfamily is serine/threonine kinase.\nBinding assays used specific radioligands (tritiated, iodinated) with non-radioactive competitive displacement ligands in agonist or antagonist protocols (as indicated) and various reference compounds and inhibitors to titrate specific binding to receptors and transporters. Most enzyme assays (CYPs, kinases, phosphatases, proteases, HDACs) used recombinant protein and specific substrates (fluorescence mostly, some colorimetric and radioactive) and inhibitors, followed by a biochemical separation of substrate and product. All assays for the biochemical HTS were initially run in duplicate at a single concentration (10 uM for CYP450 assays and 25 uM for all others). Assay-chemical combinations meeting a pre-defined threshold (e.g., 30% inhibition and other criteria defined below) were then run in singleton concentration-response format with maximum concentration of 20 uM for CYPs and 50 uM for all others. Each assay was run with positive and negative controls, and concurrent controls on every plate. The follow-up (secondary) screen tested active chemical-pairs in concentration series, as well as a few additional assays not tested in the primary screen, some selected negative inactives, and several cases re-run in the concentration series for confirmatory purposes.", "values": [{"smiles": "COC(=O)c1ccccc1S(=O)(=O)NC(=O)N(C)c1nc(C)nc(OC)n1", "outcome": "inactive"}, {"smiles": "CNC(=S)S", "AC50": "inconclusive: 6.52 µM"}, {"smiles": "COCC(C)N(C(=O)CCl)c1c(C)csc1C", "note": "(centres undefined)", "outcome": "inactive"}, {"smiles": "S=C1NCCN1", "outcome": "inactive"}]}]}
